{"source": "patent US20150064287A1", "about": "“METHOD FOR TREATING ABNORMAL POLYGLUTAMINE-MEDIATED DISEASES” (NATIONAL TAIWAN NORMAL UNIVERSITY, priority 2013, published 2015)", "test_system": "293 ATXN3/Q75-GFP cells", "experiment": "ATXN3/Q75 aggregation assay in 293 cells (high-content analysis)", "format": "cell-based, human", "details": "effective dose = reduced the ATXN3/Q75 aggregation to 86% or lower", "protocol": "The isogenic ATXN3/[…]-75 cell line was employed, which was formed from subjecting the Flp-InTM-293 cells to targeting insertion of the pcDNA5/FRT/TO-ATXN3/[…] and […] recombinant plasmids. These cell lines were grown in medium containing 5 μg/mL blasticidin and 100 μg/mL hygromycin (InvivoGen). In addition, the method for culture in establishment of the human SH-SY5Y derived Flp-In host cell line and the formation of the isogenic ATXN3/[…]-75 cell line was the same. […] Then doxycycline (10 μg/mL, BD) and oxaliplatin (5 μM, Sigma) were added for 6 days.", "data": [{"molecule": "COC(=O)C1=CO[C@@H](O)[C@@H]2C(CO)=CC[C@H]12", "note": "[genipin]", "values": [{"measurement": "IC50 cytotoxicity/effective dose ratio", "result": 11600}]}, {"molecule": "COC(=O)C1=CO[C@@H](O[C@@H]2O[C@H](CO)[C@@H](O)[C@H](O)[C@H]2O)[C@@H]2C(CO)=CC[C@H]12", "note": "[geniposide]", "values": [{"measurement": "IC50 cytotoxicity/effective dose ratio", "result": "> 2000"}]}]}
